Laboratory results: the supplement of paper PMC10849652
This is one part of the list.

Amino acid sequences for entries named in this document (tags omitted). A change or cut given only in a name is not applied to a line headed by its entry.
UniProt Q9UHV7: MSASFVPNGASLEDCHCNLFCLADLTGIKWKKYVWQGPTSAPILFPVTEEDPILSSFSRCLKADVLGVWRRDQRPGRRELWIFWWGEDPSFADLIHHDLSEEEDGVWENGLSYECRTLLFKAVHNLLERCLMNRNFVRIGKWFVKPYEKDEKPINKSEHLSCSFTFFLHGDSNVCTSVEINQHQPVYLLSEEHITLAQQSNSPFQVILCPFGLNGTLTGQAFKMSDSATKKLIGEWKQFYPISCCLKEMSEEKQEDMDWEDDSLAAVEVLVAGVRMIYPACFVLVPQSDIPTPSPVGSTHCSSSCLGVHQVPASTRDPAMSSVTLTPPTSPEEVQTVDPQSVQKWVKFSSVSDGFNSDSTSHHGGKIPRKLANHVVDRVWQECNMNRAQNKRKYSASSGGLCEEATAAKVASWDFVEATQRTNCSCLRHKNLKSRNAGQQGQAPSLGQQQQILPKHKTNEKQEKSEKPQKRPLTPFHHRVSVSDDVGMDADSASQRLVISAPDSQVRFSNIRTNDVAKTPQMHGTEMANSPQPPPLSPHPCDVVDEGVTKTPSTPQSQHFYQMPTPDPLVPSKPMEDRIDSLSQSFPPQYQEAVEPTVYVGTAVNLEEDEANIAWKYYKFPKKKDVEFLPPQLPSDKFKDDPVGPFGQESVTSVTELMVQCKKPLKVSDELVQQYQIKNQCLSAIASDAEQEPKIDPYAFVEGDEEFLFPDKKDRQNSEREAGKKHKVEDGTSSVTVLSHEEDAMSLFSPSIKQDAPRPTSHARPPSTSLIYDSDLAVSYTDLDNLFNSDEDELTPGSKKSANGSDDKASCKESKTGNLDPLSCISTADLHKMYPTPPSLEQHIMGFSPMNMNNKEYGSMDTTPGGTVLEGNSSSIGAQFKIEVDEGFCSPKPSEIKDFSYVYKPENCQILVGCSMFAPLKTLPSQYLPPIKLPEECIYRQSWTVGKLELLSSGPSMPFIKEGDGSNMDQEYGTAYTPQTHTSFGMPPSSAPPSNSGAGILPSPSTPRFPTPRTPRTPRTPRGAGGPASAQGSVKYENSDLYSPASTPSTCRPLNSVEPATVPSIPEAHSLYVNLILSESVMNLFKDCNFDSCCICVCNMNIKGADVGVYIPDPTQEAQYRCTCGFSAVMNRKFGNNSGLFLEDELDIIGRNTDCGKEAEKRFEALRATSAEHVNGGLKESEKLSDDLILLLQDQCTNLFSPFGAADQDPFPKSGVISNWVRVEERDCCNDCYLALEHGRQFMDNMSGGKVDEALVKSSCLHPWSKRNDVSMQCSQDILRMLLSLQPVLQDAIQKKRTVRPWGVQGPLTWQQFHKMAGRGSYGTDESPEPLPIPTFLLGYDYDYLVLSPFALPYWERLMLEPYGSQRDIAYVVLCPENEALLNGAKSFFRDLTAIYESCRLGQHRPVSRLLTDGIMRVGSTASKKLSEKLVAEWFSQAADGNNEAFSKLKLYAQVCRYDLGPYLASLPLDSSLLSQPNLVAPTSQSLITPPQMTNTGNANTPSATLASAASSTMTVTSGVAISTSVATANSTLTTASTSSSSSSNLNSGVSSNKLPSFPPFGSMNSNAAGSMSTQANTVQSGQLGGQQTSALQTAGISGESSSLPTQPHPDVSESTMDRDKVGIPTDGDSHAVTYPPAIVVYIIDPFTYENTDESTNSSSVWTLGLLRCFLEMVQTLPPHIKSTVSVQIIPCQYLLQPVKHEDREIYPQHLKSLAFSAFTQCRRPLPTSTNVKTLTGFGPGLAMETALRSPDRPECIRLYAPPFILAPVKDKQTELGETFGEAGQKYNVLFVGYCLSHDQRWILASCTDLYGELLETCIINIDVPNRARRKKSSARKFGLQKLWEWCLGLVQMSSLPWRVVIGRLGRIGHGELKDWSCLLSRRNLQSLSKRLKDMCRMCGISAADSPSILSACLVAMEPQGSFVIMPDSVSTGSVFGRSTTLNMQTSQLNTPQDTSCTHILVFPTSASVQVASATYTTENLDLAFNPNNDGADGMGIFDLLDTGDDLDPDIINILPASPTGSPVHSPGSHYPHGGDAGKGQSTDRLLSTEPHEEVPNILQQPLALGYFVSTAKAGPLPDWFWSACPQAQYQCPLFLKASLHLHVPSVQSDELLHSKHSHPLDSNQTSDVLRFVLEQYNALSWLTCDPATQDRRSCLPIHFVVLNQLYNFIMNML
UniProt Q14703: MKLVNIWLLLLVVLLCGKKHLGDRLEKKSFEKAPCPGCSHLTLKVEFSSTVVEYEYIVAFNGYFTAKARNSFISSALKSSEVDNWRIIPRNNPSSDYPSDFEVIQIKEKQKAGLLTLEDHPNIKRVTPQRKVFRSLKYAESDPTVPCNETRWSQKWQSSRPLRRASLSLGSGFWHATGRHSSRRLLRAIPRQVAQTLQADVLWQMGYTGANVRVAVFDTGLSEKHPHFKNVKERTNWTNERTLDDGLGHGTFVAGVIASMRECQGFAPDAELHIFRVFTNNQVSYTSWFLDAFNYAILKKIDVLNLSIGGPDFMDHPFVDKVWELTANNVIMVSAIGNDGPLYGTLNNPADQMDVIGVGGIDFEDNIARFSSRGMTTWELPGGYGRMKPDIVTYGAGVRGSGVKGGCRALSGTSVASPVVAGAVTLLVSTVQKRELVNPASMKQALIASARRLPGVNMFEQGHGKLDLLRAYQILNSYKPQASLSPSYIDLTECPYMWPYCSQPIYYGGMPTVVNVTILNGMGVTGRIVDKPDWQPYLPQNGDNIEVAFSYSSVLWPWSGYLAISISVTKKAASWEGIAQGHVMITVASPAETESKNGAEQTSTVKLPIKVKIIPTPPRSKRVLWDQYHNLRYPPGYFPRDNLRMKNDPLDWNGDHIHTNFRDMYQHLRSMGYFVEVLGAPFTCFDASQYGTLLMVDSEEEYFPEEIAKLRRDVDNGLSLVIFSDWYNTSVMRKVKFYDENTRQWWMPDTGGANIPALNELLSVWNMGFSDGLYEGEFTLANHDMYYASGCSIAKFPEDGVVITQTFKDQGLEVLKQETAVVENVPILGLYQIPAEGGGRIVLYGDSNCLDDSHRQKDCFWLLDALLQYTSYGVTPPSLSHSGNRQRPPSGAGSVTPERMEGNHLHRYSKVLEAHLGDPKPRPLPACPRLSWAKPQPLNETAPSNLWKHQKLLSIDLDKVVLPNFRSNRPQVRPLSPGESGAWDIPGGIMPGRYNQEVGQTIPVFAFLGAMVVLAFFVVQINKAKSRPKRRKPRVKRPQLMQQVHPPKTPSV
UniProt Q6P2C8: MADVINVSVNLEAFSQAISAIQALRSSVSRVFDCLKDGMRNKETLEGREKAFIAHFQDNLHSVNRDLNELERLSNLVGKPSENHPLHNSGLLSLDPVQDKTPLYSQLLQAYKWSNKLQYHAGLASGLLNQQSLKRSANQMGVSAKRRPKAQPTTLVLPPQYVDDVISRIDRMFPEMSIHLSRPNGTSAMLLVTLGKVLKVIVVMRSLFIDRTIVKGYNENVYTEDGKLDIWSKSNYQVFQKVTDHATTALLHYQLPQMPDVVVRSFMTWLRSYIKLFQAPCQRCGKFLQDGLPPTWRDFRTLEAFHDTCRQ
UniProt Q9BUT9: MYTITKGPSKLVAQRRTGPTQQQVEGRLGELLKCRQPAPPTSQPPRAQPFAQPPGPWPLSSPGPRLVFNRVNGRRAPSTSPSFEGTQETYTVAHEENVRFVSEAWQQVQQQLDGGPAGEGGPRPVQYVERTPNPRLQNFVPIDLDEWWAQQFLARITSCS
UniProt Q14728: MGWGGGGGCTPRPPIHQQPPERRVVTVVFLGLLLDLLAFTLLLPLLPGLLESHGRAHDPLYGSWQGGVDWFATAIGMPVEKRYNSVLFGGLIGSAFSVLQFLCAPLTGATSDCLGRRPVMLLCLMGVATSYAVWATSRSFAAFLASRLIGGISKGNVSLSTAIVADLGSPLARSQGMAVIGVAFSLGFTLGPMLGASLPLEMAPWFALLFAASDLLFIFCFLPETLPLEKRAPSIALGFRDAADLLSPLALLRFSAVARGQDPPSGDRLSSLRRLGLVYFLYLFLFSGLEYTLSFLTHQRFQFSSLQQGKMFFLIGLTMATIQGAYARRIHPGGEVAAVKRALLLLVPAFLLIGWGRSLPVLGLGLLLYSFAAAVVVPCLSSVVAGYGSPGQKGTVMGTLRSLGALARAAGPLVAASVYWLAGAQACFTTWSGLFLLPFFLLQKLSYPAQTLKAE
UniProt Q6N075: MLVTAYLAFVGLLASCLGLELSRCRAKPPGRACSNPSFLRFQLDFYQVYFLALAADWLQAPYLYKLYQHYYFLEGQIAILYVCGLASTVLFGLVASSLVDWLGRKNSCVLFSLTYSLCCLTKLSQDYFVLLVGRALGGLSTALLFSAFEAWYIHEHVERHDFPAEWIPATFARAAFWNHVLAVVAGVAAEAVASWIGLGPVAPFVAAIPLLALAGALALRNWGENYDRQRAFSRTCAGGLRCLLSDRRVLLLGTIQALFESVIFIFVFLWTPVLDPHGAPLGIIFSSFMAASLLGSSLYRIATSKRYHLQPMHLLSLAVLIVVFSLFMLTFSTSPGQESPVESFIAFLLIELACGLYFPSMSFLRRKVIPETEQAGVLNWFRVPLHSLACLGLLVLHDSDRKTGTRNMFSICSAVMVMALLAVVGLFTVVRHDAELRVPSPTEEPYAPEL
UniProt Q96PE7: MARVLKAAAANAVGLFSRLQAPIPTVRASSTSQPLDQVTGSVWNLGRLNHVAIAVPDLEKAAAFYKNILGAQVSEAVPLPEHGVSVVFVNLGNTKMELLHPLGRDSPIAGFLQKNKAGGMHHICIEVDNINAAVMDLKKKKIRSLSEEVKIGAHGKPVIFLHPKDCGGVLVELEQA
UniProt Q9Y6X3: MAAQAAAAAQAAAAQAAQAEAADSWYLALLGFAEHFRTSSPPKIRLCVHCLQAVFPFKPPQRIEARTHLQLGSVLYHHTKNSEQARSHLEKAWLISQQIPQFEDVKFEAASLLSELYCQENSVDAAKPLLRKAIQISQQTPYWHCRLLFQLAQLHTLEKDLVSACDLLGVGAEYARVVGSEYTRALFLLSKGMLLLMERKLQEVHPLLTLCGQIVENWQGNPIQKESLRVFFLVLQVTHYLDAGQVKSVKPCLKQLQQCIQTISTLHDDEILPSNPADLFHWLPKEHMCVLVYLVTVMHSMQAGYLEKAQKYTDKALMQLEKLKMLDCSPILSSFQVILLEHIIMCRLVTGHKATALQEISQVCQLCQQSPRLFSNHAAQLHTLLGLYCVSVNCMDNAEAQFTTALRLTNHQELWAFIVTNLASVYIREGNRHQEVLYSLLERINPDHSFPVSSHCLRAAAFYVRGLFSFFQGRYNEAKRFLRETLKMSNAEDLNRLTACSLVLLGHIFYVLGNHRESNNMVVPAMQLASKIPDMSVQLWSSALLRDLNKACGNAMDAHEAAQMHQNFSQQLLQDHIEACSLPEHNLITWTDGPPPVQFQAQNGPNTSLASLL
UniProt O95568: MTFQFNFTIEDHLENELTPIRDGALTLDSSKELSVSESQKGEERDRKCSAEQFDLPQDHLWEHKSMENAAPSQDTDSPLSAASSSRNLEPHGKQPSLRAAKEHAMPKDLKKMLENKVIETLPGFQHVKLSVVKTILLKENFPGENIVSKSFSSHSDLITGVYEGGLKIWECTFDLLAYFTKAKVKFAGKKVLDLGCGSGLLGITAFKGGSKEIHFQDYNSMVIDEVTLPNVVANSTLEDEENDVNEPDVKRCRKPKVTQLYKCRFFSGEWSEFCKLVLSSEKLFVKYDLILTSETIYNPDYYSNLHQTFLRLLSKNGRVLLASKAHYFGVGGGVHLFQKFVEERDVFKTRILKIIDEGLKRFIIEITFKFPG
UniProt P43121, whole entry, looked up: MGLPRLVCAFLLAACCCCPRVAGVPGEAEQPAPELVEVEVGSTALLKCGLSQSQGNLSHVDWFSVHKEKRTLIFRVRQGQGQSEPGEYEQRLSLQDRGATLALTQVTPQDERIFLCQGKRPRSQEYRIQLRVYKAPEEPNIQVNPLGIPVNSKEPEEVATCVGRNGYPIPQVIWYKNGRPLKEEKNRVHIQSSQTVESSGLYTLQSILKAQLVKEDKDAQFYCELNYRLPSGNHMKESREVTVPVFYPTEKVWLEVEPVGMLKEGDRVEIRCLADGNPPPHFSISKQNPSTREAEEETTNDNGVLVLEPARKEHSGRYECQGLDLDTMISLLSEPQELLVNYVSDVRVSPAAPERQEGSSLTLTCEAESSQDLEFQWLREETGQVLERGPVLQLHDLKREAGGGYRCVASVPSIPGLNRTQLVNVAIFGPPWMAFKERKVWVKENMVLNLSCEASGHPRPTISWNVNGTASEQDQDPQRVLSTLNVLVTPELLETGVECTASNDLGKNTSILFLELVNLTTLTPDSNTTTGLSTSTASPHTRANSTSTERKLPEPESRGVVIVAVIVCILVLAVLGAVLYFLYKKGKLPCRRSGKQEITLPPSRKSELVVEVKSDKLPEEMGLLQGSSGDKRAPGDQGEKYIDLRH
UniProt P61244, whole entry, looked up: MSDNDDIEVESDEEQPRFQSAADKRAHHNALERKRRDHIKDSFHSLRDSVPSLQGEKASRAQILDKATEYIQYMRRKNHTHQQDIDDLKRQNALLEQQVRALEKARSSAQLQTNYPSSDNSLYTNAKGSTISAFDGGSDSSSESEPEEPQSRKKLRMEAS

Key:
Assay in all cases: log2 fold change, soluble protein after heating vs DMSO (PISA); higher = thermal stabilisation; K562 lysate, 10 uM; active = over 0.2 and 3.5 SD of the protein, either way, in both replicates (recomputed)
[1] = compound: C#Cc1cccc(Nc2ncnc3cc(OCCOC)c(OCCOC)cc23)c1 [erlotinib]
Outline: (§1)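 Soluble protein was defined as the supernatant remaining after 21,000xg for 90 min, following pooling of heated aliquots and adjustment to 0.5% NP-40 at 4°C. Before that, crude K562 extract at 1 mg/mL protein in PBS pH 7.4 with 1 mM MgCl2 was treated with 10 μM compound for 30 min and heated for 3 min across 48°C-58°C. Quantification used TMTpro 16plex LC-MS/MS with channel sums equalised, and values are log-two fold changes in thermal stability relative to solvent controls from duplicates.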

[2] = compound: C/C(=N\NC(=O)C1=CC(=CC=C1)S(=O)(=O)N2CCOCC2)/C3=C(C=CC(=C3)Cl)O
Outline: as §1

[3] = compound: C1=CC(=CC=C1C2=NC3=C(N2)C=C(C=C3)C(=O)N)OC4=CC=C(C=C4)Cl
Outline: as §1

[4] = compound: C1=CC2=C(C=CC(=C2)/C=C\3/C(=O)NC(=NCC4=CC=CS4)S3)N=C1
Outline: as §1

[5] = compound: C1=CC2=NC=CN=C2C=C1/C=C/3\C(=O)NC(=O)S3
Outline: as §1

[6] = compound: C1=CC=C(C=C1)C2=NC(=C(N2)C3=CC=NC=C3)C4=CC(=C(C=C4)Cl)O
Outline: as §1

[7] = compound: C1=CC=C2C(=C1)C3=NNC4=CC=CC(=C43)C2=O
Outline: as §1

[8] = compound: C1CCN(C1)C(=O)NC2=CC=CC(=C2)NC3=NC=C(C(=N3)NCCC4=CN=CN4)Br
Outline: as §1

[9] = compound: C1CN(CCC1(CC2=CC=C(C=C2)Cl)N)C3=NC=NC4=C3C=CN4
Outline: as §1

[10] = compound: C1COCCN1CCN2C3=CC=CC=C3N=C2NC(=O)C4=CC(=CC=C4)[N+](=O)[O-] [IRAK-1-4 Inhibitor I]
Outline: as §1

Measured: log2 fold change

MED13 (UniProt Q9UHV7)
inactive: [1] -0.034 | [2] 0.047 | [3] 0.082 | [4] -0.02 | [5] -0.003 | [6] -0.031 | [7] 0.022 | [8] 0.053 | [9] 0.018 | [10] 0.045

MBTPS1 (UniProt Q14703)
inactive: [1] 0.033 | [2] -0.022 | [3] -0.044 | [4] -0.009 | [5] -0.053 | [6] 0.029 | [7] -0.014 | [8] -0.029 | [9] 0.131 | [10] -0.026

MCCC2 (UniProt Q9HCC0)
inactive: [1] -0.003 | [2] -0.065 | [3] 0.018 | [4] 0.02 | [5] -0.027 | [6] 0.002 | [7] -0.025 | [8] -0.002 | [9] -0.019 | [10] 0.005

MED27 (UniProt Q6P2C8)
inactive: [1] 0.02 | [2] -0.013 | [3] -0.001 | [4] 0 | [5] -0.004 | [6] 0 | [7] -0.018 | [8] -0.041 | [9] 0.034 | [10] 0.048

MFN1 (UniProt Q8IWA4)
inactive: [1] 0.016 | [2] 0.124 | [3] -0.025 | [4] -0.05 | [5] 0.001 | [6] -0.022 | [7] -0.011 | [8] 0.024 | [9] 0.017 | [10] 0.004

METTL3 (UniProt Q86U44)
inactive: [1] -0.014 | [2] -0.082 | [3] 0.016 | [4] 0.024 | [5] -0.021 | [6] 0.005 | [7] -0.026 | [8] -0.028 | [9] 0 | [10] 0.014

MERTK (UniProt Q12866)
inactive: [1] 0.002 | [2] -0.004 | [3] -0.111 | [4] 0.018 | [5] -0.199 | [6] -0.012 | [7] 0 | [8] -0.047 | [9] -0.03 | [10] 0.027

MCM4 (UniProt P33991)
inactive: [1] 0.022 | [2] 0.036 | [3] -0.007 | [4] 0.024 | [5] 0.029 | [6] 0.028 | [7] 0.035 | [8] -0.017 | [9] -0.005 | [10] -0.002

MDH1 isoform 3 (UniProt P40925)
inactive: [1] -0.001 | [2] 0.02 | [3] 0.02 | [4] -0.042 | [5] 0 | [6] 0.002 | [7] 0.005 | [8] 0.003 | [9] 0.014 | [10] 0.007

MCRIP2 (UniProt Q9BUT9)
inactive: [1] -0.038 | [2] -0.036 | [3] 0.109 | [4] -0.01 | [5] -0.041 | [6] 0.057 | [7] -0.005 | [8] 0.051 | [9] 0.03 | [10] 0.013

MFSD10 (UniProt Q14728)
inactive: [1] -0.06 | [2] 0.049 | [3] -0.145 | [4] -0.01 | [5] 0.019 | [6] -0.008 | [7] 0.071 | [8] -0.138 | [9] 0.017 | [10] 0.13

MFSD5 isoform 2 (UniProt Q6N075)
inactive: [1] -0.06 | [2] 0.03 | [3] 0.043 | [4] -0.038 | [5] -0.027 | [6] 0.131 | [7] -0.054 | [8] 0.058 | [9] -0.029 | [10] -0.011

MEAK7 (UniProt Q6P9B6)
inactive: [1] 0.013 | [2] 0.051 | [3] 0.017 | [4] -0.03 | [5] -0.004 | [6] -0.023 | [7] -0.018 | [8] 0 | [9] 0.001 | [10] 0.051

MCM7 (UniProt P33993)
inactive: [1] 0.007 | [2] 0.025 | [3] -0.018 | [4] -0.002 | [5] 0.013 | [6] -0.004 | [7] 0.064 | [8] -0.004 | [9] -0.007 | [10] -0.016

MCEE (UniProt Q96PE7)
inactive: [1] -0.001 | [2] 0.017 | [3] 0.039 | [4] 0.019 | [5] 0.006 | [6] -0.02 | [7] -0.076 | [8] -0.057 | [9] 0.095 | [10] -0.058

MEAF6 isoform 3 (UniProt Q9HAF1)
inactive: [1] -0.031 | [2] 0.021 | [3] -0.008 | [4] -0.034 | [5] -0.021 | [6] -0.039 | [7] 0.039 | [8] -0.026 | [9] 0.028 | [10] 0.02

MAU2 (UniProt Q9Y6X3)
inactive: [1] 0.102 | [2] -0.087 | [3] 0.027 | [4] 0.037 | [5] -0.107 | [6] -0.038 | [7] -0.067 | [8] -0.02 | [9] 0.011 | [10] -0.044

MCM2 (UniProt P49736)
inactive: [1] 0.02 | [2] -0.021 | [3] -0.003 | [4] 0.006 | [5] 0.002 | [6] -0.001 | [7] -0.001 | [8] -0.014 | [9] 0.011 | [10] 0.002

MBNL1 isoform 5 (UniProt Q9NR56)
inactive: [1] -0.014 | [2] -0.043 | [3] 0.051 | [4] -0.009 | [5] -0.023 | [6] -0.025 | [7] 0.04 | [8] -0.027 | [9] -0.02 | [10] 0.011

MDC1 (UniProt Q14676)
inactive: [1] -0.012 | [2] 0.005 | [3] 0.028 | [4] 0.008 | [5] -0.016 | [6] -0.018 | [7] -0.034 | [8] -0.008 | [9] 0.007 | [10] 0.021

MBOAT7 (UniProt Q96N66)
inactive: [1] 0.017 | [2] 0.018 | [3] -0.028 | [4] -0.018 | [5] 0.012 | [6] -0.045 | [7] -0.059 | [8] 0.011 | [9] -0.007 | [10] 0.017

METTL18 (UniProt O95568)
inactive: [1] 0.004 | [2] 0.036 | [3] 0.047 | [4] 0.025 | [5] 0.034 | [6] 0.049 | [7] -0.013 | [8] -0.15 | [9] 0.026 | [10] -0.029

MCAM (UniProt P43121)
inactive: [1] -0.025 | [2] 0.012 | [3] 0.039 | [4] -0.024 | [5] 0.016 | [6] 0.018 | [7] -0.069 | [8] 0.008 | [9] 0.076 | [10] 0.032

2 records drawn at random from those above:
MBNL1 isoform 5 (UniProt Q9NR56)
inactive: [1] -0.014 | [2] -0.043 | [3] 0.051 | [4] -0.009 | [5] -0.023 | [6] -0.025 | [7] 0.04 | [8] -0.027 | [9] -0.02 | [10] 0.011

MCAM (UniProt P43121)
inactive: [1] -0.025 | [2] 0.012 | [3] 0.039 | [4] -0.024 | [5] 0.016 | [6] 0.018 | [7] -0.069 | [8] 0.008 | [9] 0.076 | [10] 0.032

Next records

MED15 (UniProt Q96RN5)
inactive: [1] 0.005 | [2] 0.005 | [3] -0.004 | [4] -0.006 | [5] -0.031 | [6] 0.001 | [7] 0 | [8] 0.017 | [9] 0 | [10] -0.001

ME3 (UniProt Q16798)
inactive: [1] -0.093 | [2] 0.118 | [3] 0.073 | [4] -0.042 | [5] 0.032 | [6] -0.059 | [7] -0.086 | [8] 0.009 | [9] -0.019 | [10] -0.005

METAP1D (UniProt Q6UB28)
inactive: [1] 0.083 | [2] -0.183 | [3] -0.068 | [4] 0.043 | [5] 0.006 | [6] 0.01 | [7] 0.039 | [8] 0.026 | [9] 0.001 | [10] -0.007

MATR3 (UniProt P43243)
inactive: [1] -0.018 | [2] 0.01 | [3] 0.094 | [4] -0.035 | [5] 0.01 | [6] -0.055 | [7] -0.03 | [8] 0.014 | [9] -0.004 | [10] -0.013

MCM6 (UniProt Q14566)
inactive: [1] -0.011 | [2] -0.015 | [3] -0.003 | [4] -0.015 | [5] -0.006 | [6] -0.002 | [7] 0.006 | [8] -0.006 | [9] -0.038 | [10] -0.015

MAX (UniProt P61244)
inactive: [1] -0.013 | [2] -0.019 | [3] -0.01 | [4] -0.043 | [5] -0.029 | [6] -0.095 | [7] -0.019 | [8] 0.044 | [9] -0.031 | [10] 0.059

MCRIP1 (UniProt I3L4Q0)
inactive: [1] -0.02 | [2] -0.044 | [3] 0.022 | [4] 0.019 | [5] 0.035 | [6] -0.027 | [7] 0.022 | [8] 0.058 | [9] 0.076 | [10] 0.037
